Results deposited as PubChem BioAssay AID1508597 (Cure First, 2020)

Screen: 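Knock-downs altering ovarian cancer cell survival with or without PARP inhibitor rucaparib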 (primary screen)
Cell system: human ovarian carcinoma lines grown from tumours: OCI-P5x (papillary serous) and OCI-C5x (clear cell)
Reagent: siRNA pool against human genes, 1.25 pmol siRNA per well
Time to read-out: 72 h or 96 h, depending on the cell culture
Treatment: rucaparib 20 µM (about IC30) or vehicle, present until read-out
Measured: 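ATP luminescence measured at 72 or 96 h according to the culture, then normalised and expressed as percent viability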
Reading the numbers: viability, normalised: higher = more viable cells remaining
Hit rule: 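Active when normalised viability falls below 80 percent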
Meaning of the calls: active = viability under 80%; inactive = viability 80% or more
In all, the deposit lists about 2,100 reagents; below is an unselected part. 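Calls flag viability under 80% in either arm, not effects specific to rucaparib; the reference for percent is not stated.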 No sequences are given here. Not given: the 100% reference.

For PMAIP1, rucaparib or vehicle Rucaparib, cell line OCI-C5x (clear cell), technical replicate 1 the deposit lists viability, normalised (%) = 34.8; active. PMAIP1, rucaparib or vehicle Rucaparib, cell line OCI-C5x (clear cell), technical replicate 2 scored viability, normalised (%) = 67.6; active. For PMAIP1, rucaparib or vehicle Rucaparib, cell line OCI-C5x (clear cell), technical replicate 3, the values are viability, normalised (%) = 30; active. With PMAIP1, rucaparib or vehicle Rucaparib, cell line OCI-P5x (serous), technical replicate 1, the values are viability, normalised (%) = 32.5; active. PMAIP1, rucaparib or vehicle Rucaparib, cell line OCI-P5x (serous), technical replicate 2 gave viability, normalised (%) = 36.3; active. PMAIP1, rucaparib or vehicle Rucaparib, cell line OCI-P5x (serous), technical replicate 3 scored viability, normalised (%) = 35.5; active.

PMAIP1, rucaparib or vehicle Vehicle, cell line OCI-C5x (clear cell), technical replicate 1 gave viability, normalised (%) = 51.2; active. With PMAIP1, rucaparib or vehicle Vehicle, cell line OCI-C5x (clear cell), technical replicate 2, the entry reads viability, normalised (%) = 39.4; active. For PMAIP1, rucaparib or vehicle Vehicle, cell line OCI-C5x (clear cell), technical replicate 3, the values are viability, normalised (%) = 44.4; active. For PMAIP1, rucaparib or vehicle Vehicle, cell line OCI-P5x (serous), technical replicate 1 the deposit lists viability, normalised (%) = 54.8; active. PMAIP1, rucaparib or vehicle Vehicle, cell line OCI-P5x (serous), technical replicate 2 showed viability, normalised (%) = 55.2; active. For PMAIP1, rucaparib or vehicle Vehicle, cell line OCI-P5x (serous), technical replicate 3, the entry reads viability, normalised (%) = 59.8; active.
